Among the data in the supplement of paper PMC6411743 are NP40-soluble protein abundance values, retold here.

Chains of the proteins cited; added tags and fusions are not shown. Lines headed by an entry give the natural chain unless they say otherwise; changes in a name come on top.
UniProt P61011: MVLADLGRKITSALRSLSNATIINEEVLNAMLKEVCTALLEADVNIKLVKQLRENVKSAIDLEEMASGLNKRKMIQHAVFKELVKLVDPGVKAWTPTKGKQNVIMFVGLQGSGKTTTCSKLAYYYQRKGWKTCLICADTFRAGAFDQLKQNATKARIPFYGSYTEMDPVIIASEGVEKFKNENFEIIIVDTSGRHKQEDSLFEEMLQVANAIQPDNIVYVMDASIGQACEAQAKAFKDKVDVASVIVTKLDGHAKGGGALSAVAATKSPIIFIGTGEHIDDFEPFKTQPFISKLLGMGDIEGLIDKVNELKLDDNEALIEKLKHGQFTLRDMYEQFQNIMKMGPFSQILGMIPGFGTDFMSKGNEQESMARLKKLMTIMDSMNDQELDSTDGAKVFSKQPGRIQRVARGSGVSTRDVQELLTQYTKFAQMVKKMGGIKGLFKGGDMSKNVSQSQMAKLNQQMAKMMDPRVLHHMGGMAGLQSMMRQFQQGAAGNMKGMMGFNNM
UniProt P82970: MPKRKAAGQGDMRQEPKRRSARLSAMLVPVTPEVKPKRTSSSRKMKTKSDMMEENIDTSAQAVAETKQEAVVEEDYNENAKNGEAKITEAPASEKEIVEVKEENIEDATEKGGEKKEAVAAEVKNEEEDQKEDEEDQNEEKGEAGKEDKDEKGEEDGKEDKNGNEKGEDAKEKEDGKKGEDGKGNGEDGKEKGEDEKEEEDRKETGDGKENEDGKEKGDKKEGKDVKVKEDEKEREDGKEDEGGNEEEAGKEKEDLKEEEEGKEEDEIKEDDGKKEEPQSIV
UniProt P98095: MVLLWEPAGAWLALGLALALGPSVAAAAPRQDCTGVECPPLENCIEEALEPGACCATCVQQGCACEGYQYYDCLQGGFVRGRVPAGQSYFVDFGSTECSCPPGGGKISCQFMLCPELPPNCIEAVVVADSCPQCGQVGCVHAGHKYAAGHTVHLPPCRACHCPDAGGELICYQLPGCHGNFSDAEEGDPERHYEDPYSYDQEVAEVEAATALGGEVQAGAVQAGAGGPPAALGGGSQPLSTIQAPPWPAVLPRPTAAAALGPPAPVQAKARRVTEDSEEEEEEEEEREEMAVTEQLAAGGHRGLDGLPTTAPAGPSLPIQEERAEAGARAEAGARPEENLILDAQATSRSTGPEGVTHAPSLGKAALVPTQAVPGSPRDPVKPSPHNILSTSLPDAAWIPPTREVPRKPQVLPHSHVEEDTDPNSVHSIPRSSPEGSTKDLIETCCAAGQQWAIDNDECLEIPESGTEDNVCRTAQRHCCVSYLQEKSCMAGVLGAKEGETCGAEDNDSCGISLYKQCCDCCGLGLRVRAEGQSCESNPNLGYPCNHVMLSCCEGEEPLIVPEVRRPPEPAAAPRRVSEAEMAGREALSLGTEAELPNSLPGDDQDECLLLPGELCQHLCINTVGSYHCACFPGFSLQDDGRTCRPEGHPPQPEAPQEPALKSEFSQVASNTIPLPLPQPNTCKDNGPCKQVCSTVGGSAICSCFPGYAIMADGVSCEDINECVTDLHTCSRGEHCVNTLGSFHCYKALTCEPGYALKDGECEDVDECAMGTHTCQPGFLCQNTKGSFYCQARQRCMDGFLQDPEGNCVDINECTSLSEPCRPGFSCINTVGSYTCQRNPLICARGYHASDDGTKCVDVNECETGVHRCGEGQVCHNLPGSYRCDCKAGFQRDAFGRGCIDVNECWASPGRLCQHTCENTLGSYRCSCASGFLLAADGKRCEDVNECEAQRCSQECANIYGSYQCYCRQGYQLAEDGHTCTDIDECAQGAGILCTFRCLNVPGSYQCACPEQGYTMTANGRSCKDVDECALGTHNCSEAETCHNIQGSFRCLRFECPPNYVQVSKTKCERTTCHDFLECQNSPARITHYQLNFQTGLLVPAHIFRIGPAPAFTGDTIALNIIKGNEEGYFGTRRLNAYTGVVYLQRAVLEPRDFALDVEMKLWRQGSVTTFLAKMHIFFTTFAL
UniProt P84103: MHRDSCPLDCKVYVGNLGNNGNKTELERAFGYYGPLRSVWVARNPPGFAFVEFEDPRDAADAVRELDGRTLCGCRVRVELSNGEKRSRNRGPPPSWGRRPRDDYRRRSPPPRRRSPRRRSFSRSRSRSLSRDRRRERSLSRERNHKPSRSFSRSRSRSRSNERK
UniProt P50552: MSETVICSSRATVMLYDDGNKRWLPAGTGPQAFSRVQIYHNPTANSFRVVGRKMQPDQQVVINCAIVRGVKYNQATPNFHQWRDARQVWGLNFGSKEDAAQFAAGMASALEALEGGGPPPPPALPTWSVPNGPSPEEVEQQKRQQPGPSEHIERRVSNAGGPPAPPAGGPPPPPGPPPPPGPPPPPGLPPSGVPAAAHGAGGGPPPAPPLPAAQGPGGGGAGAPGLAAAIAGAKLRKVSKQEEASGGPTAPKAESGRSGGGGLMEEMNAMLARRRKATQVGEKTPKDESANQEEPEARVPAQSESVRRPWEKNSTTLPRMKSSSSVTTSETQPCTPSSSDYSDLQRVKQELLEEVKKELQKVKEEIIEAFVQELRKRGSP
UniProt P61163, whole entry: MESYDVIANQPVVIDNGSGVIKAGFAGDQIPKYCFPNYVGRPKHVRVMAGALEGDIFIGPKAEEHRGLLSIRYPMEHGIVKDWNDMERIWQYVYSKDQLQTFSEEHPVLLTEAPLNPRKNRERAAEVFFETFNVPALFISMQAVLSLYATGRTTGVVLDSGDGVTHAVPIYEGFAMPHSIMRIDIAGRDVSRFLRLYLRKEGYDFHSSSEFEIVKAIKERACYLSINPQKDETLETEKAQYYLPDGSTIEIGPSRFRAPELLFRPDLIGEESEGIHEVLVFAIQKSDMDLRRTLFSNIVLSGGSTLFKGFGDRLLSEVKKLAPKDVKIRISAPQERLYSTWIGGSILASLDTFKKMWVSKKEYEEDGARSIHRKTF
UniProt P63151: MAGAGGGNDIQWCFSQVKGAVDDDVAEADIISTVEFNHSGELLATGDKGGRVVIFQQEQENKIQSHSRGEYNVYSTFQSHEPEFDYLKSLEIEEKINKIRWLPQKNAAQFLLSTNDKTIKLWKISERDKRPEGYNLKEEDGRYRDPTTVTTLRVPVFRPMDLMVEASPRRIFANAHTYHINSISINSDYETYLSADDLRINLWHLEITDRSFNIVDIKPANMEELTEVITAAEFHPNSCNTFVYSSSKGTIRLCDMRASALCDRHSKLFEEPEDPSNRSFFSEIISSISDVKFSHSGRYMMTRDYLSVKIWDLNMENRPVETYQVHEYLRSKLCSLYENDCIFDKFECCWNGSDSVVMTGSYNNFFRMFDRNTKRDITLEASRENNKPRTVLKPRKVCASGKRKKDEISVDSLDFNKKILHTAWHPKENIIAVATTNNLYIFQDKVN
UniProt P52655, whole entry: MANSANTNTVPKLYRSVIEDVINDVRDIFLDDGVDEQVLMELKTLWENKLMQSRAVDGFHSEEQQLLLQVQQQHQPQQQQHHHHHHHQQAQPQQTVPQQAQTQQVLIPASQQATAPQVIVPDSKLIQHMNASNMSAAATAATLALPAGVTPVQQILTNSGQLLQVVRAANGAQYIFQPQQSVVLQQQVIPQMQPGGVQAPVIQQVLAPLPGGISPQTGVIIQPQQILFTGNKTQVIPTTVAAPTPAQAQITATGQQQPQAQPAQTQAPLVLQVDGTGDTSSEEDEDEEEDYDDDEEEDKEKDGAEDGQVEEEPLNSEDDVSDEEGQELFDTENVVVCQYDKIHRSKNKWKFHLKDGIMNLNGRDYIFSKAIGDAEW
UniProt P61019: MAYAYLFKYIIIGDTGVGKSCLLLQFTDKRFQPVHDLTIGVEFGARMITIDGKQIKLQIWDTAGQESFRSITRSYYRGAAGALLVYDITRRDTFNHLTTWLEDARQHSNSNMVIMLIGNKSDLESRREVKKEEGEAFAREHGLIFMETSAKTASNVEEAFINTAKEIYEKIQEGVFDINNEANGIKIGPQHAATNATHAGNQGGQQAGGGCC
UniProt P53618: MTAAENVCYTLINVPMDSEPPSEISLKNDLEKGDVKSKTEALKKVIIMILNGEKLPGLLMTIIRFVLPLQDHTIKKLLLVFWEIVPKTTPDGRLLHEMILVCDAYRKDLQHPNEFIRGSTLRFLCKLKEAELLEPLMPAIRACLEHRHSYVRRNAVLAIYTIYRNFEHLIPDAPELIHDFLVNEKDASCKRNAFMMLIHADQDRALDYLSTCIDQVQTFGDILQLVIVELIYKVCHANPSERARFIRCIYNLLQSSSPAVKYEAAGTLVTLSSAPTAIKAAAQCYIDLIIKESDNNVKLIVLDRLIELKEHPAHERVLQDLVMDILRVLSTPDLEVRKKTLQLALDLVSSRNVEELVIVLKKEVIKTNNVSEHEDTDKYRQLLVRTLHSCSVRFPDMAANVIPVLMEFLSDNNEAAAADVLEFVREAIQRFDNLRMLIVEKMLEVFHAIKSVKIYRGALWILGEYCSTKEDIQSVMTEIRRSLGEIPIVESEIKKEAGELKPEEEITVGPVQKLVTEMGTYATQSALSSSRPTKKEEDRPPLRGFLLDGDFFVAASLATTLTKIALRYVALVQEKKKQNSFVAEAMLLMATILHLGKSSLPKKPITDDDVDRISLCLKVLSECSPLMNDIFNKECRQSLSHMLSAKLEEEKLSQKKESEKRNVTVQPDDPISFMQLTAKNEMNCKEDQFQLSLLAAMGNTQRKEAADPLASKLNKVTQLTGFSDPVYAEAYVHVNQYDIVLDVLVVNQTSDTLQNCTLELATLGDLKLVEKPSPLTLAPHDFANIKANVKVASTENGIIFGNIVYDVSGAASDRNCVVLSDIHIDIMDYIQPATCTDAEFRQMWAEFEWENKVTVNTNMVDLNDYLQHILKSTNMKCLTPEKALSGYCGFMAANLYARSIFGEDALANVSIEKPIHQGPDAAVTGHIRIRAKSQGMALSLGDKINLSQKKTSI
UniProt P55060: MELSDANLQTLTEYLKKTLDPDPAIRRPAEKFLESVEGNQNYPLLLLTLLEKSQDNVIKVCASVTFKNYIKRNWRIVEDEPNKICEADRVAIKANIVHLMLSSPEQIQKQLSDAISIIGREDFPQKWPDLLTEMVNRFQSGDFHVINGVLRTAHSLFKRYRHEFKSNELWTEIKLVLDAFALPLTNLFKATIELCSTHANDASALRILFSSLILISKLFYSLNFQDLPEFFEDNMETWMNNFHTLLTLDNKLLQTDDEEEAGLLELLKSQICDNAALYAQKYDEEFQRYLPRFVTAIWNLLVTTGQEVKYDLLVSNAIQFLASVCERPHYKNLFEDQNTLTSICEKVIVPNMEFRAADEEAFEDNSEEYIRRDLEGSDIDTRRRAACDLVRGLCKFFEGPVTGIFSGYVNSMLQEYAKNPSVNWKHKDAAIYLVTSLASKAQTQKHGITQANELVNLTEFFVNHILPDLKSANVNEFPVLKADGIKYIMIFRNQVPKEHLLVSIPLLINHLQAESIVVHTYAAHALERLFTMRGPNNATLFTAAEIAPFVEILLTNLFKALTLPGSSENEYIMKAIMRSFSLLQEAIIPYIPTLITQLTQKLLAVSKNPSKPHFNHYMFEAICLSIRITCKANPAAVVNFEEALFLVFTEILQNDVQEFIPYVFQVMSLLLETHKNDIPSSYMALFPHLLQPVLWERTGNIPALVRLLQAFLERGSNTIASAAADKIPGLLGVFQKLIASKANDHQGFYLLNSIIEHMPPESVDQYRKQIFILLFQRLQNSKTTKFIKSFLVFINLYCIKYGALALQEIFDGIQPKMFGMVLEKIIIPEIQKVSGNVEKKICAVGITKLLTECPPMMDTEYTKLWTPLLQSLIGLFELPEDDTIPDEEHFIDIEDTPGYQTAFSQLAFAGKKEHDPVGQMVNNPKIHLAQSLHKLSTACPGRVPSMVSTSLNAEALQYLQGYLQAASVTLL
UniProt P67809, whole entry: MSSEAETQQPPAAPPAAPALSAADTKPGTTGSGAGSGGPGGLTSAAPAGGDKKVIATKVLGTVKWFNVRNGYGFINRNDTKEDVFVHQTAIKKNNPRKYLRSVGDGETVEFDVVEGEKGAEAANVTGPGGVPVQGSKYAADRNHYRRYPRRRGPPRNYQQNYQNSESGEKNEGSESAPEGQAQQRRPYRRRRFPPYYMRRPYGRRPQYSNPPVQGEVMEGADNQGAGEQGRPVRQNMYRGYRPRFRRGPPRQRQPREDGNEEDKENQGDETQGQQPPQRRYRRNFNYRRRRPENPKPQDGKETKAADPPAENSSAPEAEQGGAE
UniProt P78406: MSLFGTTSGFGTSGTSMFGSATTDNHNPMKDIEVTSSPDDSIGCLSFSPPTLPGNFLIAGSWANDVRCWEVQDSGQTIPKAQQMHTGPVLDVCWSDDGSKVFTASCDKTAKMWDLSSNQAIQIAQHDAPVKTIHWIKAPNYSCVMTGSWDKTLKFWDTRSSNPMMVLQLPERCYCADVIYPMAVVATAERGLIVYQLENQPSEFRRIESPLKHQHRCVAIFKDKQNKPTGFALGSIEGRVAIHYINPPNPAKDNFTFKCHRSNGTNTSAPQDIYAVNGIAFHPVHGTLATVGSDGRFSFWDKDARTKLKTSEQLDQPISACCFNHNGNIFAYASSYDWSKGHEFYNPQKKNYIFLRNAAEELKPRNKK

± gives the standard deviation of the averaged measurements. Some of the results follow.

Compound in this experiment: Nc1nc2c(ncn2[C@@H]2O[C@H](COP(=O)(O)OP(=O)(O)OP(=O)(O)O)[C@@H](O)[C@H]2O)c(=O)[nH]1 [guanosine triphosphate]
Kind of experiment: NP40-soluble protein abundance relative to vehicle (solubility fold change) (ratio); higher = more soluble protein in presence of GTP. As to conditions: concentration: 8mM. In a few lines:
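Data come from three independent experiments in which Dounce-homogenised Jurkat crude lysate was treated at eight concentrations from 0.1 to 10 mM. Treatment ran 10 min at room temperature and then 3 min at 37 °C, after which 0.8% NP40 and benzonase were added for 60 min at 4 °C before ultracentrifugation. The supernatant underwent TMT labelling and LC-MS/MS, and vsn-normalised intensities were expressed as fold change against the detergent-processed vehicle in each replicate.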
Consider SRP54 (UniProt P61011), for which the NP40-soluble protein abundance is 1.03 ± 0.024.
The value for UniProt P61160 and related entries was 0.937 ± 0.027.
The value for UniProt P53367 and related entries was 0.925 ± 0.047.
Take UniProt P61026: the NP40-soluble protein abundance is 0.803 ± 0.068.
On to UniProt P82970 and related entries, for which the NP40-soluble protein abundance was 1.01 ± 0.089.
The value for UniProt P98095 and related entries was 1.02 ± 0.028.
The value for UniProt P84103 and related entries was 1.1 ± 0.013.
Turning to UniProt P78527, the NP40-soluble protein abundance is 1.17 ± 0.19.
VASP (UniProt P50552): the NP40-soluble protein abundance was determined as 0.908 ± 0.082.
The value for UniProt P55039 and related entries was 0.874 ± 0.054.
The value for UniProt P61163 was 1.07 ± 0.11.
The value for UniProt P63151 and related entries was 0.92 ± 0.016; that for MRPS15 (UniProt P82914) was 1.46 ± 0.41; that for GTF2A1 (UniProt P52655) was 0.951 ± 0.097.
As for RAB2A (UniProt P61019), the NP40-soluble protein abundance came out at 0.792 ± 0.062.
COPB1 (UniProt P53618): the NP40-soluble protein abundance turned out to be 1.02 ± 0.084.
As to UniProt P63272, the NP40-soluble protein abundance turned out to be 0.919 ± 0.058.
Turning to RPL10A (UniProt P62906), the NP40-soluble protein abundance was 0.521 ± 0.069.
The value for UniProt P55265 and related entries was 1.18 ± 0.085; that for UniProt P55060 and related entries was 0.923 ± 0.039.
The value for UniProt P61962 was 0.946 ± 0.021; that for MAT1A (UniProt Q00266) was 0.981 ± 0.063.
The value for UniProt P62081 was 1.02 ± 0.22.
YBX1 (UniProt P67809): the NP40-soluble protein abundance came to 1.073 ± 0.01.
The value for UniProt P62249 was 0.738 ± 0.2; that for UniProt P78406 and related entries was 1.08 ± 0.056; that for AP3M2 (UniProt P53677) was 0.9 ± 0.034.
With UniProt P57081 and related entries, the NP40-soluble protein abundance stood at 0.974 ± 0.091.
